Small-molecule microarray binding calls

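The test is a small-molecule microarray: each compound is printed twice on a reactive slide, and binding shows as fluorescence of the labelled oligonucleotide after washing. For the PreQ1, TPP and SAM-II riboswitches the laboratory earlier reported (doi:10.1038/s41467-019-09493-3) 1 µM RNA, 2 h, and a rule that included a mean Z-score above 3 (spot signal-to-noise against the whole library), a score well above that on a control array, and duplicate spots agreeing (coefficient of variation under 100). The data file gives only the calls; its cut-offs may differ, and compounds hitting several targets are kept. A missing hit is not proof of no binding, and a hit is not a measured affinity.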 “active” means called a hit, “inactive” means screened and not called a hit. The compounds are a random part of those screened.

Oligonucleotides screened, 5′ to 3′:
T1: TPP riboswitch RNA three-way junction, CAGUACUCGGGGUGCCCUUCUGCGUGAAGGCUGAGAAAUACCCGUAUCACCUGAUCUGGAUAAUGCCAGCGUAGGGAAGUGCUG. Hit rate about 0.7% of about 24,000 compounds.
T2: PreQ1 riboswitch RNA pseudoknot, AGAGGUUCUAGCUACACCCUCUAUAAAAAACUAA. From B. subtilis. Hit rate about 0.7% of about 24,000 compounds.

- O=C(CCOc1ccccc1)N1CCCC2(CCNCC2)CC1 | T1: inactive; T2: inactive
- O=C(CC1CCNC1)NCC1(c2ccc(Cl)cc2)CC1 (stereo not shown) | T1: inactive; T2: inactive
- Cc1ncc(C(=O)N[C@@H]2CCNC2)c(-c2ccccc2)n1 | T1: inactive; T2: inactive
- CC(=O)c1onc(C(=O)NCc2ccccc2)c1N | T1: inactive; T2: inactive
- COC(=O)[C@]1(C(C)C)N[C@H](c2ccnc(C(C)C)n2)[C@@H]2C(=O)N(C)C(=O)[C@@H]21 | T1: inactive; T2: inactive
- O=C(Nc1ccc(CN2CCOCC2)cc1)N1CCNC(c2ccccc2)C1 (stereo not shown) | T1: inactive; T2: inactive
- CCc1cccc(NC(=O)c2nccnc2CO)c1 | T1: inactive; T2: inactive
- CC(=O)N1CCN(Cc2cncn2Cc2ccccc2)CC(O)C1 (stereo not shown) | T1: inactive; T2: inactive
- CCOc1ccccc1NC1OC(=O)c2ccccc21 (stereo not shown) | T1: inactive; T2: inactive
- COc1ccc(CSc2nc(N)c3c4c(sc3n2)COC(C)(C)C4)cc1 | T1: inactive; T2: inactive
- CC(C)OC(=O)c1ccc(Nc2nc3ccccc3c3nncn23)cc1 | T1: inactive; T2: inactive

Once more, the final 2:

structure,T1,T2
COc1ccc(CSc2nc(N)c3c4c(sc3n2)COC(C)(C)C4)cc1,inactive,inactive
CC(C)OC(=O)c1ccc(Nc2nc3ccccc3c3nncn23)cc1,inactive,inactive

Data from the ROBIN nucleic acid binder screens, doi:10.1002/anie.202211358.